Test results: PubChem BioAssay AID1117319 (Southern Research Institute, 2015)
The whole screen tested about 260,000 compounds, of which about 1,500 (0.58%) were called active. The shares of active, inactive and inconclusive entries below differ from those in the screen.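 The calls were made as follows: active = inhibition above a set limit at one or more doses, reproduced on every date tested; inconclusive = results disagree between test dates, or hit never tested in dose response; inactive = the rest.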

The chains behind the UniProt entries cited, without tags or fusion partners. Where a name states a change or a piece, a line headed by the entry shows the natural chain unless it says otherwise.
UniProt P69720: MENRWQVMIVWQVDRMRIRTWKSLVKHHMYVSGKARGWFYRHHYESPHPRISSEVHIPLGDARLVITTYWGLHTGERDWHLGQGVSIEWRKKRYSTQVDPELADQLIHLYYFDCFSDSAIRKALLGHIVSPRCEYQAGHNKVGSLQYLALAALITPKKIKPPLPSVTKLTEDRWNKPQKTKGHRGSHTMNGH
UniProt P69721: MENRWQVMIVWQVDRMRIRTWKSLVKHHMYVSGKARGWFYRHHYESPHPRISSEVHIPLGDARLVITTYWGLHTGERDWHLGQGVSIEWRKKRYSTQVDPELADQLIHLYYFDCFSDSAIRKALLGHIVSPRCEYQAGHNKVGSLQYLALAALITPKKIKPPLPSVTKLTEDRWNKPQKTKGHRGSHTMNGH
UniProt P69722: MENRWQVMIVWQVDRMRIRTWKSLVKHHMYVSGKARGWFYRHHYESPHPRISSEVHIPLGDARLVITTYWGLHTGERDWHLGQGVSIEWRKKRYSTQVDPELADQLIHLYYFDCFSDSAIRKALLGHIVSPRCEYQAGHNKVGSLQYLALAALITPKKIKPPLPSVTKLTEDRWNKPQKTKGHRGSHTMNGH
UniProt P69723: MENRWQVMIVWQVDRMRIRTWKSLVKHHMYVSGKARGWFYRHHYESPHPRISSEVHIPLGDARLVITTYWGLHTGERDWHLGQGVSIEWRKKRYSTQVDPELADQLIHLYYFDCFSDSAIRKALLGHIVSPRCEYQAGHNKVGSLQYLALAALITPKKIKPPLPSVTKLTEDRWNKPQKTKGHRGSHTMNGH
UniProt Q9HC16: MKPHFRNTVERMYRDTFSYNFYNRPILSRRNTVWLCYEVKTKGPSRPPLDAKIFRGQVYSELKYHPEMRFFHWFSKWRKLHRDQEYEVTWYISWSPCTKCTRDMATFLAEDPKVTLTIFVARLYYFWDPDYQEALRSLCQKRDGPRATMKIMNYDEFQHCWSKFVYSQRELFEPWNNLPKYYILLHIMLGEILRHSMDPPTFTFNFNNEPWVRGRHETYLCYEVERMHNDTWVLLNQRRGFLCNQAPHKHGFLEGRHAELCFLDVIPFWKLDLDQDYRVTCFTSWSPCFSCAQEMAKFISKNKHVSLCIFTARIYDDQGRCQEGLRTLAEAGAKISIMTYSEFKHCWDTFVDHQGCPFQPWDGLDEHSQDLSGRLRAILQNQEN

Biological target: Virion infectivity factor (Human immunodeficiency virus type 1 group M subtype B (isolate BH10)) + Virion infectivity factor (Human immunodeficiency virus type 1 group M subtype B (isolate BRU/LAI)) + Virion infectivity factor (Human immunodeficiency virus type 1 group M subtype B (isolate PCV12)) + Virion infectivity factor (Human immunodeficiency virus type 1 group M subtype B (isolate HXB2)) + DNA dC->dU-editing enzyme APOBEC-3G (Homo sapiens) (UniProt P69720+P69721+P69722+P69723+Q9HC16)
Test: inhibitors of Vif binding to APOBEC3G peptide, primary screen, biochemical, TR-FRET, GST-Vif 1-94, biotin-A3G peptide, dose response retest (AID 1117319);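 also: Vif residues 1-94 fused to GST binding biotinylated APOBEC3G peptide 110-148; 0% = full assay without inhibitor and 100% = GST in place of GST-Vif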
Settings: hits give high values

| Compound | inhibition |
| --- | --- |
| COc1ccc(CC(=O)NCCS(=O)(=O)N2CCN(c3ccccc3OC)CC2)cc1 | inactive: -3.77% |
| CCOc1ccccc1C(c1c(C)n(C)n(-c2ccccc2)c1=O)c1c(C)n(C)n(-c2ccccc2)c1=O | inactive: -1.18% |
| COc1ccc(C2NC(=O)Cc3cc(OC)c(OC)cc32)cc1OC (configuration not stated) | inconclusive: 33.2% |
| COc1ccccc1N1C(=S)NC2CS(=O)(=O)CC21 (configuration not stated) | inconclusive: 63.5% |
| S=c1[nH]nc(-c2cccnc2)n1/N=C/C=C/c1ccccc1 | inactive: 32.9% |
| O=C(CCl)N(Cc1ccccc1)c1ccccc1 | inconclusive: 38.9% |
| O=C(N/N=C/C=C/c1ccco1)/C(=C/c1ccccc1)NC(=O)c1ccccc1 | inconclusive: 60.9% |
| CN(C)c1ccc(NC(=O)CSc2nc3ccccc3c(=O)n2CC2CCCO2)cc1 (configuration not stated) | inactive: 1.51% |
| CC(C)CCOC(=O)C[N+](C)(C)CCOC1CC2CCC1(C)C2(C)C (configuration not stated) | inconclusive: 48.1% |
| CCOC(=O)C(Sc1ncc(C#N)c(N)n1)C(C)C (configuration not stated) | inconclusive: 62% |
| CCCN(CCC)S(=O)(=O)c1ccc(C(=O)Nc2nnc(-c3cc(OC)cc(OC)c3)o2)cc1 | inconclusive: 46.4% |
| Cc1cc(Nc2ccc3ccccc3c2)n2ncnc2n1 | inconclusive: 41.3% |
| CCOc1ccc(NCc2nnc(SCC(=O)Nc3cc(C)on3)n2-c2ccccc2OC)cc1 | inconclusive: 50.9% |
| COc1cc(NC(=O)c2ccco2)c(OC)cc1NC(=O)CCC(=O)Nc1cccc(C)c1C | inconclusive: 52.7% |
| COC(=O)c1sc2nc(CSc3nc4ccc(C)cc4[nH]3)[nH]c(=O)c2c1C | inconclusive: 38.4% |
| O=C(COc1ccc(Cl)cc1)Nc1nc(-c2cccs2)cs1 | inconclusive: 61.5% |
| O=C(C1CCN(S(=O)(=O)c2ccc(Cl)c(C(F)(F)F)c2)CC1)N1CCC1 | inconclusive: 53.3% |
| O=C(NCc1ccco1)C1CC(=O)N(CCc2ccccc2)C1 (configuration not stated) | inconclusive: 39% |
| Cc1ccc2cc(CNC(C)C)c(=O)[nH]c2c1 | inconclusive: 61% |

Quoted at random: two entries already listed.

| Compound | inhibition |
| --- | --- |
| Cc1cc(Nc2ccc3ccccc3c2)n2ncnc2n1 | inconclusive: 41.3% |
| Cc1ccc2cc(CNC(C)C)c(=O)[nH]c2c1 | inconclusive: 61% |

Further entries

| Compound | inhibition |
| --- | --- |
| CCCCNC(=O)CN1CCC2(O)CCCCC2C1c1ccccc1OC (configuration not stated) | inconclusive: 36.8% |
| CNC(=O)c1[nH]cnc1C(=O)N[C@@H](Cc1ccccc1)C(=O)OCc1ccccc1 | inconclusive: 64.7% |
| CCCCOC(=O)c1ccc(NC(=O)c2cnccn2)cc1 | inconclusive: 13.7% |
| CCn1cc(C(=O)O)c(=O)c2cc(OC)ccc21 | inconclusive: 54.1% |
| Cc1ccc(S(=O)(=O)N2CCN(C(=O)c3cccc(-n4cccc4)c3)CC2)cc1 | inactive: 13.6% |
| O=C1CCCC(O)=C1N=Nc1c(Cl)cc(C(F)(F)F)cc1Cl | inconclusive: 62.6% |
| O=C(O)c1cc(S(=O)(=O)N2CCCCC2)sc1Cl | inconclusive: 38.6% |
| Cc1ccc(-c2cc(C(=O)Nc3c(C)n(C)n(-c4ccccc4)c3=O)no2)cc1 | inactive: -0.77% |
| CNC(=S)N1CCN(C(=O)C2CCCO2)CC1 (configuration not stated) | inconclusive: 59.2% |
| Cc1cc(C(=O)CN2CCCC2)c(C)n1-c1ccc(Cl)cc1 | inactive: 1.44% |
| O=C(NNC1=Nc2cc([N+](=O)[O-])ccc2OC1)c1ccccc1Cl | inconclusive: 41.9% |
| COc1ccccc1/C=C/CN1CCCC(CO)(Cc2cccc(Cl)c2)C1 (configuration not stated) | inconclusive: 34.2% |
| Cc1ccc(C(=O)N2CCC3(CC2)Oc2ccc(Cl)cc2C(=O)C32CC(c3ccc(Cl)cc3)=NO2)s1 (configuration not stated) | inconclusive: 40.5% |
| Cc1ccc(NC(=O)CNc2ccccc2CN(C)C2CCCCC2)cc1 | inconclusive: 53.2% |
| CC(=O)Nc1ccc(S(=O)(=O)NCc2ccccn2)cc1 | inconclusive: 47.3% |
| CCC(=O)Nc1nc2ccc([N+](=O)[O-])cc2s1 | inactive: 1.71% |
| CC1CC(C)CN(CC(=O)Nc2ccc3c(c2)OCCO3)C1 (configuration not stated) | inconclusive: 53% |
| O=C(Nc1cccc(S(=O)(=O)NCc2ccco2)c1)c1cc(-c2ccc(F)cc2)nc2ccccc12 | inconclusive: 43.6% |
| Cc1nc2c(C(=O)N3CCOCC3)cnn2c(C)c1Cc1cccc(Cl)c1 | inconclusive: 36.8% |

| Compound | inhibition |
| --- | --- |
| CN1C(=O)/C(=C\c2ccccc2)Sc2ccc(C(=O)N3CCN(c4ccccn4)CC3)cc21 | inconclusive: 44.5% |
| CCC(C(=O)NC1CCCC1)N(C(=O)c1snc(C(N)=O)c1N)c1ccc2c(c1)OCCO2 (configuration not stated) | inconclusive: 40.6% |
| CC(C)(C)c1csc(NC(=O)Cc2cccs2)n1 | inconclusive: 38.6% |
| Cc1ccsc1/C=C/C1=NCCCN1C | inconclusive: 37.8% |
| O=C(c1cnc2ccc(Cl)cc2c1Cl)N1CCOCC1 | inconclusive: 45.4% |
| O=[N+]([O-])c1ccc(S(=O)(=O)Nc2nc(-c3ccccc3)cs2)cc1 | inconclusive: 39.1% |
| O=C1C=C(NCc2ccc(Cl)cc2)CCC1 | inconclusive: 59.6% |
| Cc1oc2cc3oc(=O)c(CCC(=O)NCCC(=O)O)c(C)c3cc2c1C | inactive: 2.04% |
| Cc1csc(SCC(=O)NCCc2ccc(Cl)cc2Cl)n1 | inconclusive: 38.9% |
| CC(=O)Nc1ccc(N/C=C/C(=O)c2ccco2)cc1 | inconclusive: 47.5% |
| CCN1CCN(c2nc3c(c(=O)[nH]c(=O)n3C)n2CCCSc2ncccn2)CC1 | inconclusive: 53.2% |
| C=CCNC(=O)CCCOc1ccc(C)cc1 | inconclusive: 54.8% |
| Fc1cccc(Cl)c1CNCc1cccnc1 | inconclusive: 44.6% |
| Cc1ccccc1-n1c(-c2ccc(Cl)cc2)cnc1SCC(=O)NC1CCS(=O)(=O)C1 (configuration not stated) | inactive: -0.29% |
| CNC(=O)CSc1nnc(-c2cccnc2)n1CCc1ccccc1 | inconclusive: 46.4% |
| O=C(CNCc1ccncc1)Nc1cc(S(=O)(=O)N2CCCCC2)ccc1Cl | inconclusive: 38.5% |
| COc1cc(/C=C(/C#N)C(=O)c2c(C)[nH]c3ccccc23)ccc1OCC#N | inconclusive: 33.7% |
| CCOC(=O)C1CCCN(c2nc3ccccc3nc2C(C#N)C(=O)NCc2ccccc2)C1 (configuration not stated) | inconclusive: 62.4% |
| COC(=O)CSc1nc2sc3c(c2c(=O)n1-c1ccccc1)CCN(C)C3 | inconclusive: 33.9% |

2 of the compounds above, tab-delimited:
Compound	inhibition
O=C1C=C(NCc2ccc(Cl)cc2)CCC1	inconclusive: 59.6%
Cc1oc2cc3oc(=O)c(CCC(=O)NCCC(=O)O)c(C)c3cc2c1C	inactive: 2.04%
